In PubChem BioAssay AID588590 (National Center for Advancing Translational Sciences (NCATS), 2011):
The campaign covered roughly 390,000 compounds. About 4,000 (1%) were called active. The shares of active, inactive and inconclusive entries below differ from those in the screen. Calls follow the shape of the dose curve; as a rule, active = well fitted inhibition curve with a large enough effect; inconclusive = small, poorly fitted or top-dose-only effect, or another doubt; inactive = no such curve, though single readings can be large or run the other way. A potency beside an inconclusive call is a rough fit, not a confirmed value.

Chains of the proteins cited; added tags and fusions are not shown. Lines headed by an entry give the natural chain unless they say otherwise; changes in a name come on top.
UniProt Q9UNA4: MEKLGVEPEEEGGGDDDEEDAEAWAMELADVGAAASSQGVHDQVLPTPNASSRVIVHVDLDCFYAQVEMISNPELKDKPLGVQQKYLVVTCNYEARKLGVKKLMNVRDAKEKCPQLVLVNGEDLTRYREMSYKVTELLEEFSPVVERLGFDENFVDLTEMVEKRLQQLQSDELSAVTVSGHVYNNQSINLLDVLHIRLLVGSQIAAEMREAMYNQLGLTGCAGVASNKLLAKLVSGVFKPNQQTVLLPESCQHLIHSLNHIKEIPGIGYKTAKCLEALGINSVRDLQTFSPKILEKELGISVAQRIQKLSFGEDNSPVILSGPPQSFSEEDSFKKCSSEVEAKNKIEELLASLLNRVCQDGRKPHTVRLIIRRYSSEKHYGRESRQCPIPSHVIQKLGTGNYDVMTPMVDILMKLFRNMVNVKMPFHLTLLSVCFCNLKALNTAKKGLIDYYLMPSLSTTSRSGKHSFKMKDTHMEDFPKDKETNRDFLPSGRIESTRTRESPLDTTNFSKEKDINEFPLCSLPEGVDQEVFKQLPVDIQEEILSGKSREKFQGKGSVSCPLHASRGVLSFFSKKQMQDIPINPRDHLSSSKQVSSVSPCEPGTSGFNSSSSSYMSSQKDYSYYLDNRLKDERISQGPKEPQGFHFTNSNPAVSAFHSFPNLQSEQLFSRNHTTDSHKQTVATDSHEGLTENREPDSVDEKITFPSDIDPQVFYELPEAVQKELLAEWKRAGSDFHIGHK

target: DNA polymerase iota (Homo sapiens) (UniProt Q9UNA4); assay: qHTS for Inhibitors of Polymerase Iota; details: Pol iota fluorescent replication assay, 10 min; series mostly up to 115 µM
From the text: DNA polymerases, such as Pol iota, are specifically involved in DNA repair. Pol iota specifically plays an important role in translesion synthesis, where the normal high-fidelity DNA polymerases cannot proceed and DNA synthesis stalls. […] Thus, while pol eta's (and most likely iota's) normal function is to protect humans against the deleterious consequences of DNA damage, under certain conditions they can have deleterious effects on human health. As a consequence, we propose to utilize a high throughput replication assay to identify small molecule inhibitors of pol iota.
In a collaboration between the National Institute of Child Health & Human Development (NICHD) and NIH Chemical Genomics Center, a high-throughput, fluorescent screen was developed to screen the NIH Molecular Libraries Small Molecule Repository (MLSMR). This screen is used to identify inhibitors of pol iota.
NIH Chemical Genomics Center [NCGC]
NIH Molecular Libraries Probe Centers Network [MLPCN]
Assay Submitter (PI): Roger Woodgate, NICHD)
Three microliters of reagents (buffer in column 3 and 4 as negative control and 10 nM Pol iota in columns 1, 2, and 5-48) will be dispensed into 1,536-well black solid-bottomed plate. Compounds (23 nL) will be transferred via Kalypsys pin tool equipped with 1536-pin array. The plates will then be incubated for 15 min at room temperature, and 1 µL substrate (50 nM final concentration) will be added to start the reaction and kinetically read twice at 0 min and 10 min on the Viewlux reader.
Potency is read from the fitted curve at half-maximal effect.

Potency, inconclusive:
Cn1nc(-c2ccccc2F)c2cc(C(=O)NCc3ccccc3Cl)sc21 0.631 µM [inhibitor, full curve, poor fit]
CSc1nnc(-c2ccco2)c(-c2ccco2)n1 10 µM [inhibitor, partial curve, poor fit]
Cc1[nH]c2ccccc2c1C(=O)CNc1ccc(Br)cc1 89.1 µM [inhibitor, single point]
Oc1c(Br)cc(/C=N/Nc2ccc(Cl)nn2)cc1Br 11.2 µM [inhibitor, full curve, poor fit]
CCc1ccc(NC(=O)C2CCN(S(=O)(=O)c3ccc4c(c3)NC(=O)CO4)CC2)cc1 44.7 µM [inhibitor, single point]
O=C(CSc1nc(O)cc(=O)[nH]1)N1CCCc2ccccc21 12.6 µM [inhibitor, partial curve, poor fit]
CC(OC(=O)c1ccc([N+](=O)[O-])s1)C(=O)NC1CCCCC1C (stereo not drawn) 89.1 µM [inhibitor, partial curve, poor fit]
CCOC(=O)c1sc(=S)n(-c2ccccc2Cl)c1SC 70.8 µM [inhibitor, partial curve, poor fit]
COc1ccc(CS(=O)/C(Cl)=C(/Cl)C(=O)Nc2ccc(OC)nc2)cc1 (stereo not drawn) 31.6 µM [inhibitor, partial curve, poor fit]
CCCc1cnc2c(c1SCC(=O)Nc1ccccc1OCC)c(=O)n(C)c(=O)n2C 6.31 µM [inhibitor, partial curve, poor fit]
CCOc1ccc(C(=O)C2CCN(CC(=O)Nc3ccccc3N3CCOCC3)CC2)cc1 22.4 µM [inhibitor, partial curve, poor fit]
O=C(c1cnn(C(=O)c2ccco2)c1)c1cc(Cl)cc(Cl)c1O 79.4 µM [inhibitor, partial curve]

Potency, inactive:
Cc1cccc(C)c1NC(=O)CN(C)C(=O)c1ccccc1OCc1ccc(F)cc1
COc1ccc(CC(=O)N2CCc3cc(OC)c(OC)cc3C2COc2ccc(F)cc2)cc1 (stereo not drawn)
CCOc1ccccc1NC(=O)CSc1nnnn1Cc1ccccc1
COc1ccc(Cl)cc1NC(=O)N1CCN(S(=O)(=O)c2ccc3c(ccn3C)c2)CC1
CCOc1ccc(NCc2cccn2-c2nnc(N3CCC(C(=O)NCc4ccccc4Cl)CC3)s2)cc1
CCN(CC)C1=N/C(=C\c2ccco2)C(=O)N1c1ccccc1

Fetched by compound from the entries so far:
Potency, inactive:
CCOc1ccc(NCc2cccn2-c2nnc(N3CCC(C(=O)NCc4ccccc4Cl)CC3)s2)cc1
CCOc1ccccc1NC(=O)CSc1nnnn1Cc1ccccc1
